Experimental data taken from publication PMC7782728.
Results are given in words; binding and its absence hold for the method and conditions named. Some results given as binding are weak or reduced against the parent protein; the word gives no strength.

By UniProt entry, the sequences of proteins in these tests, tags left out. Where a name states a change or a piece, a line headed by the entry shows the natural chain unless it says otherwise. Residues count along the entry.
UniProt P02769, residues 25-607: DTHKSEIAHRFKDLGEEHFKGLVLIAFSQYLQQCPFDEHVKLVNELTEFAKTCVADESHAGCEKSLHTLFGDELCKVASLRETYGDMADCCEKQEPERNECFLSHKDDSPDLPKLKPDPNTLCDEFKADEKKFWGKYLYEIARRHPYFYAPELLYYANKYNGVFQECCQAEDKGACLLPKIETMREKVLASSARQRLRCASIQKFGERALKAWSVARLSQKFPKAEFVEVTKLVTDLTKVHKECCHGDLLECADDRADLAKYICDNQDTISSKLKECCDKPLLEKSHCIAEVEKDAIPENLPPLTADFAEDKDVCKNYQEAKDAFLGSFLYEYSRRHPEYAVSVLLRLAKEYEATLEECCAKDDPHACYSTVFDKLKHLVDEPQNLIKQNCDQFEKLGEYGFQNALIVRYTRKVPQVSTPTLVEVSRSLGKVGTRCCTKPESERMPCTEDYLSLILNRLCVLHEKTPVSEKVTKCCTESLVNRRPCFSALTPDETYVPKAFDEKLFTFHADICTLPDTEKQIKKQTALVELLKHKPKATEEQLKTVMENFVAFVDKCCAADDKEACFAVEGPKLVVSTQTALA
UniProt P11087: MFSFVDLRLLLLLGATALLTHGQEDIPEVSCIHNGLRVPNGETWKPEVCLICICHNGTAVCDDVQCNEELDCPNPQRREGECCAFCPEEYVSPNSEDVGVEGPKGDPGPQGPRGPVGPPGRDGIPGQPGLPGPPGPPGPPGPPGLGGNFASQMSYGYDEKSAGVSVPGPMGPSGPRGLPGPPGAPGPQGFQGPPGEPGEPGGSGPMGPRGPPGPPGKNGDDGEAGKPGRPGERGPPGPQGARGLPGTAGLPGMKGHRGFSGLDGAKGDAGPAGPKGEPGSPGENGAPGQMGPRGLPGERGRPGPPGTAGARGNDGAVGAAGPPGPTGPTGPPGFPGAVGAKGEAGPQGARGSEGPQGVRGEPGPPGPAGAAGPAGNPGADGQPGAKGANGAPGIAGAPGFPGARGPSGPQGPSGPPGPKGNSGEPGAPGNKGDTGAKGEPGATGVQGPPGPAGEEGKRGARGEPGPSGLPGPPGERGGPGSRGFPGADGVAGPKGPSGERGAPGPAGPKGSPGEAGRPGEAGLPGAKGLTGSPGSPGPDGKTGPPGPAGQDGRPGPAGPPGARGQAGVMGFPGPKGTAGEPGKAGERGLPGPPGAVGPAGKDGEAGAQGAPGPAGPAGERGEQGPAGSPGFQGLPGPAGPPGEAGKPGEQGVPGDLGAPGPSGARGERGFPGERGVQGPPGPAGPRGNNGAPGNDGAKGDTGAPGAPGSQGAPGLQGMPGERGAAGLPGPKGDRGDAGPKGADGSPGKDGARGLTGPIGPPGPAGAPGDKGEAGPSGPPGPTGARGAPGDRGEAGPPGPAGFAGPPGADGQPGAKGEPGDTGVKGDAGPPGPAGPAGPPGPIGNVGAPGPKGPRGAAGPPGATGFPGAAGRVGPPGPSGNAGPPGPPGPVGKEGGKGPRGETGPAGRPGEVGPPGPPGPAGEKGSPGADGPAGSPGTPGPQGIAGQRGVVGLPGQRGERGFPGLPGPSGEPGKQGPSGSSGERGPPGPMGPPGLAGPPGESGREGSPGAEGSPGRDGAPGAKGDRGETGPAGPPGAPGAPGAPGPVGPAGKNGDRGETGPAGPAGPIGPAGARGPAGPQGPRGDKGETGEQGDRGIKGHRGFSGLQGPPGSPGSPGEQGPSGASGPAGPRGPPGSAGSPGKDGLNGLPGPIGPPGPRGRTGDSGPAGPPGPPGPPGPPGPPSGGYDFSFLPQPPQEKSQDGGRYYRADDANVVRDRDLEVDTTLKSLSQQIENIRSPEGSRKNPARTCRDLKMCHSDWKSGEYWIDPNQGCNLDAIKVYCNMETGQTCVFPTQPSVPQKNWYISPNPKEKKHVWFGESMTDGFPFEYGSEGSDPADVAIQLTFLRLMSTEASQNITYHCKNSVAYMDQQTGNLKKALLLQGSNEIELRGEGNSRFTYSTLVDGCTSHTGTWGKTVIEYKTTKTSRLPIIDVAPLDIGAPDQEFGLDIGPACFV
UniProt B6A8R8, residues 22-254: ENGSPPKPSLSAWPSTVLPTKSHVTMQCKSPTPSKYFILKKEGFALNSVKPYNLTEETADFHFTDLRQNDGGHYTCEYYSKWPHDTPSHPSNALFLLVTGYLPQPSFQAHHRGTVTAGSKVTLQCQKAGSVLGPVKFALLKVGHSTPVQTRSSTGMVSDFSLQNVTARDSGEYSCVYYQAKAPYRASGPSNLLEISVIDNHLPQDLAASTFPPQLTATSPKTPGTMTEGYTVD

How the values were obtained:
[1] = molecular target: bovine serum albumin (BSA) (bovine) (UniProt P02769); assay: condition: BSA coated at 0–10 μg/ml; Fc-fused proteins 5 μg/ml; ELISA; solid-phase binding assay: IC, IIC and BSA (0–10 μg/ml) coated on Maxisorp 96-well plates; Fc-fused proteins (5 μg/ml) in TBS, 0.05% Tween20, 2 mM CaCl2, 0.5% BSA, room temperature 2 h; detected with HRP goat anti-human IgG; both purified
[2] = molecular target: type I collagen (IC) (UniProt P11087); assay: ELISA; solid-phase binding assay: IC, IIC and BSA (0–10 μg/ml) coated on Maxisorp 96-well plates; Fc-fused proteins (5 μg/ml) in TBS, 0.05% Tween20, 2 mM CaCl2, 0.5% BSA, room temperature 2 h; detected with HRP goat anti-human IgG; both purified

TARM1-Fc, a soluble form of TARM1 ectodomain fused with IgG Fc portion (from UniProt B6A8R8 22-254) (Fc fusion)
binding [1]: no binding
binding [2]: binds
